Results are given in words; binding and its absence hold for the method and conditions named. Binding seen in cells or lysates may run through a third protein. Binding can be weak; no strength is given. Tags and fused reporters may be left off the sequences shown.
Target: T1, GST-tagged CSF2RB fragment aa461-473 (human) (UniProt P32927)
T1 sequence: RFCGIYGYRLRRK
Assay: pull-down; GST-tagged fragment on glutathione-sepharose beads incubated with the in vitro translated cytoplasmic domain of the other receptor overnight at 4 °C; western blot; only the target purified

The chains behind the UniProt entries cited, without tags or fusion partners. Where a name states a change or a piece, a line headed by the entry shows the natural chain unless it says otherwise.
UniProt P32927: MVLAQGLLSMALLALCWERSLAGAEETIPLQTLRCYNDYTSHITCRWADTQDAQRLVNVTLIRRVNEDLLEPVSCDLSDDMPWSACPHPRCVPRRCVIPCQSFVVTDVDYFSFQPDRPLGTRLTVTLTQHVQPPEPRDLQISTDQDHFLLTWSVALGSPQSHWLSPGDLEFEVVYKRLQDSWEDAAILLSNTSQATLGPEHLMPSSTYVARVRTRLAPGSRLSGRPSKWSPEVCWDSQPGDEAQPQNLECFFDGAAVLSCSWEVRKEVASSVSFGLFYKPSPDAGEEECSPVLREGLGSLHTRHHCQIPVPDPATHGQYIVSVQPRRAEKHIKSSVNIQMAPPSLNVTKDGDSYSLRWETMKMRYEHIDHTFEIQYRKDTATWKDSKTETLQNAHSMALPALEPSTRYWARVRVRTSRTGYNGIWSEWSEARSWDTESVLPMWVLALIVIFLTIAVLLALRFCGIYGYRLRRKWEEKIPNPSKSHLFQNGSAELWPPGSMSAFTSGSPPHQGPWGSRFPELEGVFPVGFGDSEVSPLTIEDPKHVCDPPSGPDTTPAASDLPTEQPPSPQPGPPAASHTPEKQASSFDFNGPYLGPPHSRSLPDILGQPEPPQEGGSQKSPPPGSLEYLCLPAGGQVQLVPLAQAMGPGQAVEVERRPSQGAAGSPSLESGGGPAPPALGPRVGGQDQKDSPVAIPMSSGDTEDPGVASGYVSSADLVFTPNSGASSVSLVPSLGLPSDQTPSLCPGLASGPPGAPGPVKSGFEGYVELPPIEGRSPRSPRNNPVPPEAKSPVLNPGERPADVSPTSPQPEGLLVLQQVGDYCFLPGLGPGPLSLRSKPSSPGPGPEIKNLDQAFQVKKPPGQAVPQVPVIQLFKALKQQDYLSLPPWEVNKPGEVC

in vitro translated intracellular domain of FLT3-ITD (domain or fragment)
binding: binds
